Experimental data from paper PMC4431351.
For at least one entry, the source does not settle the construct or the ends of the probe. Where cells or extracts were used, other partners may take part.

Chains of the proteins cited; added tags and fusions are not shown. Lines headed by an entry give the natural chain unless they say otherwise; changes in a name come on top.
UniProt P15941: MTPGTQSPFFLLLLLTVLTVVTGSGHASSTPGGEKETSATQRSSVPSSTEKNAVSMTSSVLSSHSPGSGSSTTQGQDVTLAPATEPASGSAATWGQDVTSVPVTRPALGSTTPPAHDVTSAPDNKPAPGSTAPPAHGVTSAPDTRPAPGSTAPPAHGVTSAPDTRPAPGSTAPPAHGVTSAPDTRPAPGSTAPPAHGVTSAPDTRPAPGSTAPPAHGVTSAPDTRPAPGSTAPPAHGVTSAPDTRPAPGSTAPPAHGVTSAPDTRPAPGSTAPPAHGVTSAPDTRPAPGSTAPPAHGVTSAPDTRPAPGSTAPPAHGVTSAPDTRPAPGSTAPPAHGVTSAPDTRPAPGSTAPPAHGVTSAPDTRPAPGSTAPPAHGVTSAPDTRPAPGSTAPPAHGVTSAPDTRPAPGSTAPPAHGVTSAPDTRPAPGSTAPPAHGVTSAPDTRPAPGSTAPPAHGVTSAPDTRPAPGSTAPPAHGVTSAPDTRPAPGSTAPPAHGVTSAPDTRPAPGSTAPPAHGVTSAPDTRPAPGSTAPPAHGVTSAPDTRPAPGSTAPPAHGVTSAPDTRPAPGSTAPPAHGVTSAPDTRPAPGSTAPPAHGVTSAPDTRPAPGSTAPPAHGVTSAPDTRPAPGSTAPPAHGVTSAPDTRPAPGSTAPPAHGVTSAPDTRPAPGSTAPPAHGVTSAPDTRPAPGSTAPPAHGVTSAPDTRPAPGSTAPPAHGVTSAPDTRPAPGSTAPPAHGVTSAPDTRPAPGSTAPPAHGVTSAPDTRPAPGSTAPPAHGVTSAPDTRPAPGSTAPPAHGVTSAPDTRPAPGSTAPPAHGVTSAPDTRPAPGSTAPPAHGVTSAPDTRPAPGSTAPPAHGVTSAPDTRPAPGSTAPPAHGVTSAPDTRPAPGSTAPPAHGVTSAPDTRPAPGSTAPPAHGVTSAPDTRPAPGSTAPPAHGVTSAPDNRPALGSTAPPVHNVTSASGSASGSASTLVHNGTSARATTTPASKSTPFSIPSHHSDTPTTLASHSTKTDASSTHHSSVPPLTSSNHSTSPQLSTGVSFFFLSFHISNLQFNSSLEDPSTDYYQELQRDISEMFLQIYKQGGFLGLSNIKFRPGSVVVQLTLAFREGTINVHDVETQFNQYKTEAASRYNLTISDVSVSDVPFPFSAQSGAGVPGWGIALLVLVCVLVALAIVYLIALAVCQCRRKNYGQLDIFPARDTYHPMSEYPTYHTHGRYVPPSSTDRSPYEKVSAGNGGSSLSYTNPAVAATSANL

Target: MUC1 (native, on MCF-7 cell membrane) (human (MCF-7 cells)) (UniProt P15941)
Assay: cell binding, LDI-MS of Au cluster ions
Settings: multivalent Au NP/GO conjugate on MCF-7 cells; 5'-thiol; Probe assembled in 5 mM sodium phosphate pH 7.4, then PBS (10 mM sodium phosphate, 140 mM NaCl, 2.70 mM KCl, pH 7.6), room temperature; protein on the cell surface; single-stranded DNA

Sequence: TTTTTTTTTTTTTTTGCAGTTGATCCTTTGGATACCCTGG [5'-thiol-T15-AptMUC1 on Au NPs/GO]
- binding result: binds
